For assay [1], the target named is myc-tagged full length rat Pdzd2 (rat) (UniProt Q9QZR8). In words: co-IP; immunoprecipitation by anti-myc antibody from myc-Pdzd2 transfected CHO-SNS22 cells.
For assay [2], the target named is intracellular loop between domains 2 and 3 of rat NaV1.7 (aa 968 to 1157) fused to GST (rat) (UniProt O08562). Kind of assay: pull-down; GST pull-down as described (Poon et al., 2004); GST fusion proteins purified on glutathione sepharose beads as bait, HA-Pdzd2(C) as prey.
Assay [3] concerns the target intracellular loop between domains 2 and 3 of rat NaV1.8 (amino acid positions 893 to 1148) fused to GST (rat) (UniProt Q62968). Described as above.

Amino acid sequences for entries named in this document (tags omitted). A change or cut given only in a name is not applied to a line headed by its entry. Chains listed by the source or under a name are the forms on record and can include a tag or linker. Residues count along the entry.
UniProt O08562, residues 968-1157: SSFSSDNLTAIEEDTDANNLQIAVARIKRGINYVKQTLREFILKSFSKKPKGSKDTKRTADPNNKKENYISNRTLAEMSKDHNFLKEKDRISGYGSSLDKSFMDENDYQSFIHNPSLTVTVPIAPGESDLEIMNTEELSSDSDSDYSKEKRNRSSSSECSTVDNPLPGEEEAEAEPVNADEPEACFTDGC
UniProt Q62968: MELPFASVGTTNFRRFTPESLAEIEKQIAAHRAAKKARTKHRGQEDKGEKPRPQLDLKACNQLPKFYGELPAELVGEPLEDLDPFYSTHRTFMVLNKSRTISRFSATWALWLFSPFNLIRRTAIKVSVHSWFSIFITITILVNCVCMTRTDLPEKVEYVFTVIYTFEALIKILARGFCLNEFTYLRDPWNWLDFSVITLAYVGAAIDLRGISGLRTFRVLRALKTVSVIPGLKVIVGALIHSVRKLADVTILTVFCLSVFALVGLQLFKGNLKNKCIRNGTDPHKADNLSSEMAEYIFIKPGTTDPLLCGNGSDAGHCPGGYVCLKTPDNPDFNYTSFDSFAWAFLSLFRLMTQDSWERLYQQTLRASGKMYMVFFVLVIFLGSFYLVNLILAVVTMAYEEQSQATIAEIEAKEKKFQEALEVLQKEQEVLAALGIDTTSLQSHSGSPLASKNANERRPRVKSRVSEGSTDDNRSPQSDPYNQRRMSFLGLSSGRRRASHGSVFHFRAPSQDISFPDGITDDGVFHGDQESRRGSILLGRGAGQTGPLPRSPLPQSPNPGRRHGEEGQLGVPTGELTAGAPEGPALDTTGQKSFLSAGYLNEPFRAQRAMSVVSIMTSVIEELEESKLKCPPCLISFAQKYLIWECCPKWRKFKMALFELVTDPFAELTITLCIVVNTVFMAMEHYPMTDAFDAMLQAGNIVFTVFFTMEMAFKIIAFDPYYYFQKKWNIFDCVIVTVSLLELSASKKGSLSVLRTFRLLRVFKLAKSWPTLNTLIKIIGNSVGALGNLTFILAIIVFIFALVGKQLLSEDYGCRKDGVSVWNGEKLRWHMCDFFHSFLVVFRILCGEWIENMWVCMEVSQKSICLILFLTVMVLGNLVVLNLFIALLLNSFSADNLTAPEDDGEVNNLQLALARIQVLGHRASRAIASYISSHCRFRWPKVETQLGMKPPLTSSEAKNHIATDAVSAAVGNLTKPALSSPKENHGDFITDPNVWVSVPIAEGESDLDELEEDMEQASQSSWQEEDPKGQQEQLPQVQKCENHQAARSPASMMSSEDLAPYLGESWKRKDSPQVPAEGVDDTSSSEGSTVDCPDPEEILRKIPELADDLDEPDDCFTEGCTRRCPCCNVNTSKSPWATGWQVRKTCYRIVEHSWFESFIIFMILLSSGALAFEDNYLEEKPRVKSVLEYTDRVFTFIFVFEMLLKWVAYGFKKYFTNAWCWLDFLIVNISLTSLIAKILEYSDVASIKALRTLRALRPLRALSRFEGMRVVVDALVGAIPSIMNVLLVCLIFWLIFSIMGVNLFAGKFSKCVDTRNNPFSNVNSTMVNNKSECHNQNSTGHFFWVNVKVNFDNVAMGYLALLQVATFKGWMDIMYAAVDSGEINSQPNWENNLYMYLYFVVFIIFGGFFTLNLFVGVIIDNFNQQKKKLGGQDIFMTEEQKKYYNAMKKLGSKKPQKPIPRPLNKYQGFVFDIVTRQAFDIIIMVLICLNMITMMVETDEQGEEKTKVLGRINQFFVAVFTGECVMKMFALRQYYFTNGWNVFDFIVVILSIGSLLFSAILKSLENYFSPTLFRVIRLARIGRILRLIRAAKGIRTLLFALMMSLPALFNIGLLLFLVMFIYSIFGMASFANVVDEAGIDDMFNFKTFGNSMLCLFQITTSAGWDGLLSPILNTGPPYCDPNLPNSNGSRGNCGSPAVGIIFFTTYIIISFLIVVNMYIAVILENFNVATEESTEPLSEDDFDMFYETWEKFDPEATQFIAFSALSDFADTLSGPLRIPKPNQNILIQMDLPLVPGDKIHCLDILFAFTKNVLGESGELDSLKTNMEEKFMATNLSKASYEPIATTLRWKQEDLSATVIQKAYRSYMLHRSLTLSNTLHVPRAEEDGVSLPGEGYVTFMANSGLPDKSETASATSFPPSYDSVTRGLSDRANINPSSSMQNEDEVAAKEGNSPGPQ
intracellular loop between domains 2 and 3 of rat NaV1.8 (amino acid positions 893 to 1148) fused to GST: residues 893-1148 of Q62968

No constants are given. Whether binding was seen depends on the method and setting. Binding seen in cells or lysates may run through a third protein. Some binding calls cover weakened binding; strength is not graded here. For part of these data: Sequences can lack the tags named with a protein.

Take “rat NaV1.8 expressed in CHO-SNS22 cells (from UniProt Q62968 1-1956)”: the binding result in assay [1] is reported as “binds”.

B1: haemagglutinin (HA)-tagged rat Pdzd2 C-terminal fragment (201aa), GFP-fused (domain or fragment, UniProt Q9QZR8 2567-2766)
chain: GGADVEPKSVMVHRVFSQGVASQEGTVSRGDFLLSVNGTSLAGLAHSEVTKVLHQAELHKHALMIIKKGNDQPGPSFKQEPPSANGKGPFPRRTLPLEPGAGRNGAAHDALCVEVLKTSAGLGLSLDGGKSSVSGEGPLVIKRVYKGGAAERAGTIEAGDEILAINGKPLVGLVHFDAWNIMKSVPEGPVQLVIRKHRDS
As for B1, the binding result in assay [2] and in assay [3] was “binds” each time.

Source of the values: article PMC2764382.
